Data from paper PMC11816700.

Chains of the proteins cited; added tags and fusions are not shown.
UniProt Q02FR1: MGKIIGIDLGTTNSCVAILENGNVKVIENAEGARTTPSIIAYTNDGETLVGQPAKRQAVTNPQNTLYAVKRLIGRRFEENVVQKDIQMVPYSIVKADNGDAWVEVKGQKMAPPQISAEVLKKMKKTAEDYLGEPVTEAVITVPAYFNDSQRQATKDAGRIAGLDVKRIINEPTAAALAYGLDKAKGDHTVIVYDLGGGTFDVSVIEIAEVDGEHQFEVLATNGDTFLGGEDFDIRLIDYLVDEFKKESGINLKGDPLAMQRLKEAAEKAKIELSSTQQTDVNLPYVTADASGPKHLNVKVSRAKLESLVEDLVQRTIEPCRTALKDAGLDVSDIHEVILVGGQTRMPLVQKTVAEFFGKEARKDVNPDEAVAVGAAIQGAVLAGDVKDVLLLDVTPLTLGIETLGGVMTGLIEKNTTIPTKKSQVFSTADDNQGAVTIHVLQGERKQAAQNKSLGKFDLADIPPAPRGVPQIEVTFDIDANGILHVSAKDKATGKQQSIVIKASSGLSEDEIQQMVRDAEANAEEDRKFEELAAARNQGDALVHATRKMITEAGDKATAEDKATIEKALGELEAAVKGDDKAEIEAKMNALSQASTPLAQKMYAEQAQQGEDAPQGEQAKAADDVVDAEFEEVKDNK
UniProt Q59638: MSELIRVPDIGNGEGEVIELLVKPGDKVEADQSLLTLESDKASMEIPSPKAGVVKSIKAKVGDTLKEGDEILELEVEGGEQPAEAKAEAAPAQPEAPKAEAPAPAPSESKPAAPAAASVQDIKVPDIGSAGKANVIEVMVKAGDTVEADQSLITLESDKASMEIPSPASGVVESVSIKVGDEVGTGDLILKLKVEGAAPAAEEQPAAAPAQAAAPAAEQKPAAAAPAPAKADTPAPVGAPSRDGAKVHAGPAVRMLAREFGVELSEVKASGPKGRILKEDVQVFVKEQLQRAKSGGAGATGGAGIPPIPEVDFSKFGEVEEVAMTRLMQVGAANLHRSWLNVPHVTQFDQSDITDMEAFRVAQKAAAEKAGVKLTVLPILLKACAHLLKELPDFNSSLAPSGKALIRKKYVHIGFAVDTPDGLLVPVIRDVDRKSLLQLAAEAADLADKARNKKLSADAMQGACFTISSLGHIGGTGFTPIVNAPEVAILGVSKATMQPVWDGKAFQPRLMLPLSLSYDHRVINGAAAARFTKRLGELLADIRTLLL
UniProt P30718: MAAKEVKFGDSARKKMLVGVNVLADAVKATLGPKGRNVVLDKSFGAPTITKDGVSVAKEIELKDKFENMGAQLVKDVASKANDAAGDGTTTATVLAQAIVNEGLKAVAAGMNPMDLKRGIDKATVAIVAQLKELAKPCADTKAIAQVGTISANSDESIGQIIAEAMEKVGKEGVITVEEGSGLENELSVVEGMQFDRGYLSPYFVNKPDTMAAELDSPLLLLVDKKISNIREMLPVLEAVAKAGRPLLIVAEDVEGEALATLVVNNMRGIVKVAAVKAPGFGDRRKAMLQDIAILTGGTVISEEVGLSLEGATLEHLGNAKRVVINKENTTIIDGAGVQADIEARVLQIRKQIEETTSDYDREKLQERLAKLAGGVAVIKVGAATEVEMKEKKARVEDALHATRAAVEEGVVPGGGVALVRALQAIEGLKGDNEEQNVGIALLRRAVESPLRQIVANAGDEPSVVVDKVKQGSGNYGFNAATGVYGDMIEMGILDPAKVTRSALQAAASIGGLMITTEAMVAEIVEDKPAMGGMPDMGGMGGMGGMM
UniProt Q9HV44: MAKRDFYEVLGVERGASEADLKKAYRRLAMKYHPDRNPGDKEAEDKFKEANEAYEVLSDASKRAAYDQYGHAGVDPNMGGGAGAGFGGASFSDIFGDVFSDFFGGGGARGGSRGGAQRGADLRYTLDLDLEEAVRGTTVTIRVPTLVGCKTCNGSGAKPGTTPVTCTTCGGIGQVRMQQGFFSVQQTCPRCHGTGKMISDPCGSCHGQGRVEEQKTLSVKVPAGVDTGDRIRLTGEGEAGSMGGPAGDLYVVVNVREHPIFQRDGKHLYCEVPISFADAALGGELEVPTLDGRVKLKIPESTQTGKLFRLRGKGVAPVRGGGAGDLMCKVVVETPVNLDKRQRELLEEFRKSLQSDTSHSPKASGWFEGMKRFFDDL
UniProt Q9I3D1: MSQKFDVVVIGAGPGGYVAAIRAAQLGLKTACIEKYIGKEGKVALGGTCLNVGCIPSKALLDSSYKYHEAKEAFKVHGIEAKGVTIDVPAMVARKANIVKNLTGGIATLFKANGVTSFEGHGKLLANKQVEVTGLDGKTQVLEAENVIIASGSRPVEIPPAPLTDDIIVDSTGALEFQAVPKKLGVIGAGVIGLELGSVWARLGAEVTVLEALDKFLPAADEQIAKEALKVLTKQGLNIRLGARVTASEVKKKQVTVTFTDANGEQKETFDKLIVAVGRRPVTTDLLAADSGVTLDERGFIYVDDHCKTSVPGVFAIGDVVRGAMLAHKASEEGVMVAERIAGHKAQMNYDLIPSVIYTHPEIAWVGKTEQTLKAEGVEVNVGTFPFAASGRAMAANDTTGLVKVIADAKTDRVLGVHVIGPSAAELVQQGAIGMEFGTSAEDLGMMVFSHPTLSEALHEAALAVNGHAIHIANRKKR

Target: DnaK (Hsp70) chaperone of Pseudomonas aeruginosa PA14 (P. aeruginosa PA14 (endogenous in P. aeruginosa PA14)) (UniProt Q02FR1)
Test: affinity purification with mass spectrometry; anti-DnaK polyclonal IgG on Dynabeads Protein A; whole cell lysate of P. aeruginosa PA14 grown aerobically (1.4 mg/mL protein), cells treated with formaldehyde by the results; washed with PBS/0.02% Tween20; eluted with 100 mM citrate pH 2.5; LC-MS/MS, at least two unique peptides

Row | binding | Substance
1 | binds | Dihydrolipoamide acetyltransferase AceF (from UniProt Q59638 1-547) (enzyme)
2 | binds | Chaperonin GroEL (from UniProt P30718 1-547)
3 | no binding | co-chaperone DnaJ (from UniProt Q9HV44 1-377)
4 | binds | Dihydrolipoamide dehydrogenase Lpd (from UniProt Q9I3D1 1-478) (enzyme)

These are yes or no findings as the source states them, for the method shown. In cells and extracts the contact can be indirect. These calls come from enrichment with a bait or labelling near it, and not all partners need be listed. No binding means not detected with the bait.
